Assay results published in patent US20100021918A1, “METHOD FOR ASSAYING ACTION OF ANTITUMOR AGENT USING SPLICING DEFECTS AS INDEX” (Eisai R&D Management Co., Ltd., priority 2007, published 2010).
The source gives many values for each of these; only a part stands here.

System: peripheral blood mononuclear cells (PBMC)
Test: Microarray analysis (3), dose-dependent intron expression in PBMC at 3, 10, 30 nM, Table 5
Format: cell-based, human
Experimental: PBMC was suspended in RPMI1640 medium (containing 10% FBS, penicillin, and streptomycin) to 5×10^6 cells/ml and 1 ml of the suspension was plated per well of a 24-well plate. Immediately, 111 μl of 10 times-concentrated (8E,12E,14E)-7-((4-cycloheptylpiperazin-1-yl)carbonyl)oxy-3,6,16,21-tetrahydroxy-6,10,12,16,20-pentamethyl-18,19-epoxytricosa-8,12,14-trien-11-olide was added to the well (six wells per each concentration tested). The cells were then cultured in an incubator with 5% carbon dioxide gas at 37° C. Three hours later, the supernatant was collected and centrifuged at 1500 rpm for five minutes. TRI reagent (SIGMA) (1 ml) was added to each well of the plate from which the supernatant was removed to harvest the cells, which was added to the centrifuged pellet to dissolve. RNA was purified in accordance with the protocol of TRI reagent. RNA was further purified using RNeasy (QIAGEN) and, in accordance with the protocol, DNaseI was added to the samples during the procedure. Absorbance at 260 nm was measured to quantify an amount of RNA.
Ribosomal RNA was removed from 1 μg of each total RNA of control cells (n=3) and cells with the treatment (n=3) using RiboMinus Human/Mouse Transcriptome Isolation Kit (Invitrogen). Single stranded cDNA synthesis, double stranded cDNA synthesis, cRNA synthesis, second single stranded cDNA synthesis, cDNA fragmentation, and cDNA labeling in order were carried out for total RNA from which ribosomal RNA was removed, using GeneChip Whole Transcript Sense Target Labeling and Control Reagents (Affymetrix) to make a cDNA probe. Subsequently, the cDNA probe was used for hybridization with Human Exon 1.0 ST Array (Affymetrix). The array was washed and stained, and luminescence intensity was measured by a scanner.
The expression level of the probe set and the gene was quantified by using Expression Console Ver. 1.0 (Affymetrix) with Summarization Method and Normalization Method being set to “Median polish as used in RMA” and “None”, respectively. The expression level of the probe was normalized with that of the gene.
Probe sets showing that the normalized change in the level expression of the probe set in the group with the treatment at 30 nM was more than 5 times; the expression level of the probe set and the gene in the group with the treatment at 30 nM was more than 100; and probe set annotation was “extended, full, free”, were picked out. Regression analysis was performed with the probe sets extracted for the control group, the group with the treatment at 3 nM, the group with the treatment at 10 nM, and the group with the treatment at 30 nM to determine a p and q value for the slope of regression formula. A gene containing the probe sets with the q value of less than 5% was determined as a candidate gene with increased expression level of the intron regions (Table 5).
In Table 5, for the gene evaluated, gene name (Gene Name), abbreviated name (Gene Symbol), accession number (Accession), alias name (Synonym), transcription cluster number in Human Exon 1.0 ST Array (Human Exon 1.0 ST Array Transcription Cluster ID), chromosome number (Chromosome), type of strand (Strand), start region (Start), stop region (Stop), and change in expression level per 1 nM (Fold Change/nM) were respectively shown.

SMILES: CCC(O)C(C)C1OC1CC(C)(O)/C=C/C=C(\C)C1OC(=O)CC(O)CCC(C)(O)C(OC(=O)N2CCN(C3CCCCCC3)CC2)/C=C/C1C (centres unmarked) [E7107, (8E,12E,14E)-7-((4-cycloheptylpiperazin-1-yl)carbonyl)oxy-3,6,16,21-tetrahydroxy-6,10,12,16,20-pentamethyl-18,19-epoxytricosa-8,12,14-trien-11-olide]
- Fold Change/nM (introns of gene NET1, regression over control, 3, 10, 30 nM): 1.07 nM⁻¹
- Fold Change/nM (introns of gene NFKBIE, regression over control, 3, 10, 30 nM): 1.04 nM⁻¹
- Fold Change/nM (introns of gene NIN, regression over control, 3, 10, 30 nM): 1.04 nM⁻¹
- Fold Change/nM (introns of gene NINJ1, regression over control, 3, 10, 30 nM): 1.04 nM⁻¹
- Fold Change/nM (introns of gene NOLC1, regression over control, 3, 10, 30 nM): 1.05 nM⁻¹
- Fold Change/nM (introns of gene NONO, regression over control, 3, 10, 30 nM): 1.07 nM⁻¹
- Fold Change/nM (introns of gene NOTCH2 // NBPF14, regression over control, 3, 10, 30 nM): 1.06 nM⁻¹
- Fold Change/nM (introns of gene NP, regression over control, 3, 10, 30 nM): 1.06 nM⁻¹
- Fold Change/nM (introns of gene NRIP1, regression over control, 3, 10, 30 nM): 1.04 nM⁻¹
- Fold Change/nM (introns of gene NUP98, regression over control, 3, 10, 30 nM): 1.07 nM⁻¹
- Fold Change/nM (introns of gene NUPL1, regression over control, 3, 10, 30 nM): 1.04 nM⁻¹
- Fold Change/nM (introns of gene NXF1, regression over control, 3, 10, 30 nM): 1.07 nM⁻¹
- Fold Change/nM (introns of gene PDCD4, regression over control, 3, 10, 30 nM): 1.06 nM⁻¹
- Fold Change/nM (introns of gene PDE4B, regression over control, 3, 10, 30 nM): 1.06 nM⁻¹
- Fold Change/nM (introns of gene PDXK // C21orf124, regression over control, 3, 10, 30 nM): 1.07 nM⁻¹
- Fold Change/nM (introns of gene PELI1, regression over control, 3, 10, 30 nM): 1.08 nM⁻¹
- Fold Change/nM (introns of gene PHF12, regression over control, 3, 10, 30 nM): 1.06 nM⁻¹
- Fold Change/nM (introns of gene PIK3AP1, regression over control, 3, 10, 30 nM): 1.06 nM⁻¹
- Fold Change/nM (introns of gene PITPNA // MYO1C, regression over control, 3, 10, 30 nM): 1.05 nM⁻¹
- Fold Change/nM (introns of gene PLAGL2, regression over control, 3, 10, 30 nM): 1.04 nM⁻¹
- Fold Change/nM (introns of gene PLAUR, regression over control, 3, 10, 30 nM): 1.06 nM⁻¹
- Fold Change/nM (introns of gene PLRG1, regression over control, 3, 10, 30 nM): 1.04 nM⁻¹
- Fold Change/nM (introns of gene POGZ, regression over control, 3, 10, 30 nM): 1.04 nM⁻¹
- Fold Change/nM (introns of gene POLR1C, regression over control, 3, 10, 30 nM): 1.04 nM⁻¹
- Fold Change/nM (introns of gene POLR2B, regression over control, 3, 10, 30 nM): 1.04 nM⁻¹
- Fold Change/nM (introns of gene PPP1CC, regression over control, 3, 10, 30 nM): 1.04 nM⁻¹
- Fold Change/nM (introns of gene PPP1R10, regression over control, 3, 10, 30 nM): 1.07 nM⁻¹
- Fold Change/nM (introns of gene PPP1R12A, regression over control, 3, 10, 30 nM): 1.04 nM⁻¹
- Fold Change/nM (introns of gene PPP2CA, regression over control, 3, 10, 30 nM): 1.07 nM⁻¹
- Fold Change/nM (introns of gene PRPF3 // KIAA0460, regression over control, 3, 10, 30 nM): 1.04 nM⁻¹
- Fold Change/nM (introns of gene PRPF8, regression over control, 3, 10, 30 nM): 1.06 nM⁻¹
- Fold Change/nM (introns of gene PRPF40A, regression over control, 3, 10, 30 nM): 1.08 nM⁻¹
- Fold Change/nM (introns of gene PSCD1, regression over control, 3, 10, 30 nM): 1.08 nM⁻¹
- Fold Change/nM (introns of gene PSMA5, regression over control, 3, 10, 30 nM): 1.06 nM⁻¹
- Fold Change/nM (introns of gene PSMD2, regression over control, 3, 10, 30 nM): 1.05 nM⁻¹
- Fold Change/nM (introns of gene PSMD7, regression over control, 3, 10, 30 nM): 1.05 nM⁻¹
- Fold Change/nM (introns of gene PSTPIP2, regression over control, 3, 10, 30 nM): 1.06 nM⁻¹
- Fold Change/nM (introns of gene PTBP1, regression over control, 3, 10, 30 nM): 1.04 nM⁻¹
- Fold Change/nM (introns of gene PUM2, regression over control, 3, 10, 30 nM): 1.06 nM⁻¹
- Fold Change/nM (introns of gene PXK, regression over control, 3, 10, 30 nM): 1.04 nM⁻¹
- Fold Change/nM (introns of gene RAB5A, regression over control, 3, 10, 30 nM): 1.07 nM⁻¹
- Fold Change/nM (introns of gene RAB6IP1, regression over control, 3, 10, 30 nM): 1.07 nM⁻¹
- Fold Change/nM (introns of gene RAB8B, regression over control, 3, 10, 30 nM): 1.06 nM⁻¹
- Fold Change/nM (introns of gene RAB14, regression over control, 3, 10, 30 nM): 1.04 nM⁻¹
- Fold Change/nM (introns of gene RAD50, regression over control, 3, 10, 30 nM): 1.06 nM⁻¹
- Fold Change/nM (introns of gene RAE1, regression over control, 3, 10, 30 nM): 1.05 nM⁻¹
- Fold Change/nM (introns of gene REL, regression over control, 3, 10, 30 nM): 1.06 nM⁻¹
- Fold Change/nM (introns of gene RELA, regression over control, 3, 10, 30 nM): 1.04 nM⁻¹
- Fold Change/nM (introns of gene RNF10, regression over control, 3, 10, 30 nM): 1.06 nM⁻¹
- Fold Change/nM (introns of gene RNF40, regression over control, 3, 10, 30 nM): 1.04 nM⁻¹
- Fold Change/nM (introns of gene RP2, regression over control, 3, 10, 30 nM): 1.07 nM⁻¹
- Fold Change/nM (introns of gene RSPRY1, regression over control, 3, 10, 30 nM): 1.04 nM⁻¹
- Fold Change/nM (introns of gene SAPS3, regression over control, 3, 10, 30 nM): 1.04 nM⁻¹
- Fold Change/nM (introns of gene SART3, regression over control, 3, 10, 30 nM): 1.04 nM⁻¹
- Fold Change/nM (introns of gene SDCBP, regression over control, 3, 10, 30 nM): 1.04 nM⁻¹
- Fold Change/nM (introns of gene SEC23IP, regression over control, 3, 10, 30 nM): 1.04 nM⁻¹
